Results are given in words; binding and its absence hold for the method and conditions named. Binding seen in cells or lysates may run through a third protein. Some binding calls cover weakened binding; strength is not graded here. Where a sequence is shown, tags or fusion partners need not be part of it.

In test [1] the target is T1, STELLO1 (STL1), BiFC fusion (Yn-STL1 / Yc-STL1) (Arabidopsis thaliana) (UniProt O22943).
T1 sequence: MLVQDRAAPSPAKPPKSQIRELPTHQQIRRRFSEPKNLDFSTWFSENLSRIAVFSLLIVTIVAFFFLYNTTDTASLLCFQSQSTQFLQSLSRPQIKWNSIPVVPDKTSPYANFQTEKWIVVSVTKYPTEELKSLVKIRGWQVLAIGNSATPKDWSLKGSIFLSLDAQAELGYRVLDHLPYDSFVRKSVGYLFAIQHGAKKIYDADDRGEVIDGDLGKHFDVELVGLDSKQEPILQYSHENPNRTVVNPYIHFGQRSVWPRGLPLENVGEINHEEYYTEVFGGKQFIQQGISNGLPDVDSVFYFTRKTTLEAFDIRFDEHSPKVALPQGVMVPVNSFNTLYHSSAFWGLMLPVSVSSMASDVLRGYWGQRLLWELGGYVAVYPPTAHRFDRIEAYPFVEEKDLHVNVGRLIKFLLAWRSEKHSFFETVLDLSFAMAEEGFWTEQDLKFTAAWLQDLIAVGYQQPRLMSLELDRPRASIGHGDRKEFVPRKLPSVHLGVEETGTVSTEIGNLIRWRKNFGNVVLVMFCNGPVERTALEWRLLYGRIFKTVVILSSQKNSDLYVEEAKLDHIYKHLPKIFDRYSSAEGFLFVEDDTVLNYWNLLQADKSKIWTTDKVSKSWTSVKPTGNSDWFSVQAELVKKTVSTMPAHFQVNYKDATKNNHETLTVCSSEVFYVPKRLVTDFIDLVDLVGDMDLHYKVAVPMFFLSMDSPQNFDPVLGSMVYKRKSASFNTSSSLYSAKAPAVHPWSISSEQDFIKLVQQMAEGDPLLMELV
Nature of the test: split reporter; BiFC with Yn/Yc halves of VENUS fused to the N-termini; transient co-expression in N. benthamiana epidermal leaf cells, imaged by confocal microscopy 62 h after infiltration.

The target in test [2] is T2, STELLO2 (STL2), BiFC fusion (Yn-STL2 / Yc-STL2) (Arabidopsis thaliana) (UniProt Q9SCN0).
T2 sequence: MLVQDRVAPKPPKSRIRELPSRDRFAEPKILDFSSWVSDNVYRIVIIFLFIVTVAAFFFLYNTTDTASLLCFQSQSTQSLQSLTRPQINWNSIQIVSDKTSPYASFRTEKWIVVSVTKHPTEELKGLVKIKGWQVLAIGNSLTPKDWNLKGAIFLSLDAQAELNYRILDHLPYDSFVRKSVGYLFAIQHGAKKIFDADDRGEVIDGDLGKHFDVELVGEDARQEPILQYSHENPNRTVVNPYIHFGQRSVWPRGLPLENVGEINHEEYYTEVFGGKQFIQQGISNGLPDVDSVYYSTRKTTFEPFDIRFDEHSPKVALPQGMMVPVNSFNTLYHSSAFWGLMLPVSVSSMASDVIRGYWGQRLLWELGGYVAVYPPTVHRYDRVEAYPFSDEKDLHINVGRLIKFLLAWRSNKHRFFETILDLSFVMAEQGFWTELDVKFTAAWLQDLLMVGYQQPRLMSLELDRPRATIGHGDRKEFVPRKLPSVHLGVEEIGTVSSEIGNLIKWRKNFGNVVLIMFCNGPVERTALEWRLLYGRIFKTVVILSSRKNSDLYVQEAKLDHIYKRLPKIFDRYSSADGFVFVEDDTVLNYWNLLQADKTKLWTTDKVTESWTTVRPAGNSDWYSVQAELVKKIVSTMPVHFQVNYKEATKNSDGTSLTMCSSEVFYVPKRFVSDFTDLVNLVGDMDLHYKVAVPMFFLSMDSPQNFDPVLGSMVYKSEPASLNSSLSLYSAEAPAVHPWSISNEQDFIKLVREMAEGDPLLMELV
Described as above.

B1: Cellulose synthase CesA3, BiFC fusion (protein, UniProt Q941L0 1-1065)
chain: MESEGETAGKPMKNIVPQTCQICSDNVGKTVDGDRFVACDICSFPVCRPCYEYERKDGNQSCPQCKTRYKRLKGSPAIPGDKDEDGLADEGTVEFNYPQKEKISERMLGWHLTRGKGEEMGEPQYDKEVSHNHLPRLTSRQDTSGEFSAASPERLSVSSTIAGGKRLPYSSDVNQSPNRRIVDPVGLGNVAWKERVDGWKMKQEKNTGPVSTQAASERGGVDIDASTDILADEALLNDEARQPLSRKVSIPSSRINPYRMVIMLRLVILCLFLHYRITNPVPNAFALWLVSVICEIWFALSWILDQFPKWFPVNRETYLDRLALRYDREGEPSQLAAVDIFVSTVDPLKEPPLVTANTVLSILAVDYPVDKVSCYVSDDGAAMLSFESLAETSEFARKWVPFCKKYSIEPRAPEWYFAAKIDYLKDKVQTSFVKDRRAMKREYEEFKIRINALVSKALKCPEEGWVMQDGTPWPGNNTRDHPGMIQVFLGQNGGLDAEGNELPRLVYVSREKRPGFQHHKKAGAMNALVRVSAVLTNGPFILNLDCDHYINNSKALREAMCFLMDPNLGKQVCYVQFPQRFDGIDKNDRYANRNTVFFDINLRGLDGIQGPVYVGTGCVFNRTALYGYEPPIKVKHKKPSLLSKLCGGSRKKNSKAKKESDKKKSGRHTDSTVPVFNLDDIEEGVEGAGFDDEKALLMSQMSLEKRFGQSAVFVASTLMENGGVPPSATPENLLKEAIHVISCGYEDKSDWGMEIGWIYGSVTEDILTGFKMHARGWRSIYCMPKLPAFKGSAPINLSDRLNQVLRWALGSVEILFSRHCPIWYGYNGRLKFLERFAYVNTTIYPITSIPLLMYCTLPAVCLFTNQFIIPQISNIASIWFLSLFLSIFATGILEMRWSGVGIDEWWRNEQFWVIGGVSAHLFAVFQGILKVLAGIDTNFTVTSKASDEDGDFAELYLFKWTTLLIPPTTLLIVNLVGVVAGVSYAINSGYQSWGPLFGKLFFAFWVIVHLYPFLKGLMGRQNRTPTIVVVWSVLLASIFSLLWVRIDPFTSRVTGPDILECGINC
As to B1, the binding entry in test [1] and in test [2] was “binds” in each case.

B2: STELLO1 (STL1), BiFC fusion (Yn-STL1 / Yc-STL1) (protein, UniProt O22943 1-771)
chain: T1 sequence
On to B2, for which, in test [1], the binding result is listed as “binds”.

B3: STELLO2 (STL2), BiFC fusion (Yn-STL2 / Yc-STL2) (protein, UniProt Q9SCN0 1-765)
chain: T2 sequence
Consider B3, for which the binding result in test [2] is “binds”.

B4: Cellulose synthase CesA1, BiFC fusion (protein, UniProt O48946 1-1081)
chain: MEASAGLVAGSYRRNELVRIRHESDGGTKPLKNMNGQICQICGDDVGLAETGDVFVACNECAFPVCRPCYEYERKDGTQCCPQCKTRFRRHRGSPRVEGDEDEDDVDDIENEFNYAQGANKARHQRHGEEFSSSSRHESQPIPLLTHGHTVSGEIRTPDTQSVRTTSGPLGPSDRNAISSPYIDPRQPVPVRIVDPSKDLNSYGLGNVDWKERVEGWKLKQEKNMLQMTGKYHEGKGGEIEGTGSNGEELQMADDTRLPMSRVVPIPSSRLTPYRVVIILRLIILCFFLQYRTTHPVKNAYPLWLTSVICEIWFAFSWLLDQFPKWYPINRETYLDRLAIRYDRDGEPSQLVPVDVFVSTVDPLKEPPLVTANTVLSILSVDYPVDKVACYVSDDGSAMLTFESLSETAEFAKKWVPFCKKFNIEPRAPEFYFAQKIDYLKDKIQPSFVKERRAMKREYEEFKVRINALVAKAQKIPEEGWTMQDGTPWPGNNTRDHPGMIQVFLGHSGGLDTDGNELPRLIYVSREKRPGFQHHKKAGAMNALIRVSAVLTNGAYLLNVDCDHYFNNSKAIKEAMCFMMDPAIGKKCCYVQFPQRFDGIDLHDRYANRNIVFFDINMKGLDGIQGPVYVGTGCCFNRQALYGYDPVLTEEDLEPNIIVKSCCGSRKKGKSSKKYNYEKRRGINRSDSNAPLFNMEDIDEGFEGYDDERSILMSQRSVEKRFGQSPVFIAATFMEQGGIPPTTNPATLLKEAIHVISCGYEDKTEWGKEIGWIYGSVTEDILTGFKMHARGWISIYCNPPRPAFKGSAPINLSDRLNQVLRWALGSIEILLSRHCPIWYGYHGRLRLLERIAYINTIVYPITSIPLIAYCILPAFCLITDRFIIPEISNYASIWFILLFISIAVTGILELRWSGVSIEDWWRNEQFWVIGGTSAHLFAVFQGLLKVLAGIDTNFTVTSKATDEDGDFAELYIFKWTALLIPPTTVLLVNLIGIVAGVSYAVNSGYQSWGPLFGKLFFALWVIAHLYPFLKGLLGRQNRTPTIVIVWSVLLASIFSLLWVRINPFVDANPNANNFNGKGGVF
Turning to B4, the binding entry in test [1] and in test [2] was “binds” each time.

The record behind these values is paper PMC4906169.
